Measured values reported in publication PMC8079276.
Results are given in words; binding and its absence hold for the method and conditions named. In cells and extracts the contact can be indirect. Here binding means that the protein was enriched with, or labelled near, the bait; the list need not be complete. Where a sequence is shown, tags or fusion partners need not be part of it.

T1: UDP-N-acetylglucosamine-peptide N-acetylglucosaminyltransferase (mouse (endogenous in MEFs)) (UniProt Q8CGY8)
T1 sequence: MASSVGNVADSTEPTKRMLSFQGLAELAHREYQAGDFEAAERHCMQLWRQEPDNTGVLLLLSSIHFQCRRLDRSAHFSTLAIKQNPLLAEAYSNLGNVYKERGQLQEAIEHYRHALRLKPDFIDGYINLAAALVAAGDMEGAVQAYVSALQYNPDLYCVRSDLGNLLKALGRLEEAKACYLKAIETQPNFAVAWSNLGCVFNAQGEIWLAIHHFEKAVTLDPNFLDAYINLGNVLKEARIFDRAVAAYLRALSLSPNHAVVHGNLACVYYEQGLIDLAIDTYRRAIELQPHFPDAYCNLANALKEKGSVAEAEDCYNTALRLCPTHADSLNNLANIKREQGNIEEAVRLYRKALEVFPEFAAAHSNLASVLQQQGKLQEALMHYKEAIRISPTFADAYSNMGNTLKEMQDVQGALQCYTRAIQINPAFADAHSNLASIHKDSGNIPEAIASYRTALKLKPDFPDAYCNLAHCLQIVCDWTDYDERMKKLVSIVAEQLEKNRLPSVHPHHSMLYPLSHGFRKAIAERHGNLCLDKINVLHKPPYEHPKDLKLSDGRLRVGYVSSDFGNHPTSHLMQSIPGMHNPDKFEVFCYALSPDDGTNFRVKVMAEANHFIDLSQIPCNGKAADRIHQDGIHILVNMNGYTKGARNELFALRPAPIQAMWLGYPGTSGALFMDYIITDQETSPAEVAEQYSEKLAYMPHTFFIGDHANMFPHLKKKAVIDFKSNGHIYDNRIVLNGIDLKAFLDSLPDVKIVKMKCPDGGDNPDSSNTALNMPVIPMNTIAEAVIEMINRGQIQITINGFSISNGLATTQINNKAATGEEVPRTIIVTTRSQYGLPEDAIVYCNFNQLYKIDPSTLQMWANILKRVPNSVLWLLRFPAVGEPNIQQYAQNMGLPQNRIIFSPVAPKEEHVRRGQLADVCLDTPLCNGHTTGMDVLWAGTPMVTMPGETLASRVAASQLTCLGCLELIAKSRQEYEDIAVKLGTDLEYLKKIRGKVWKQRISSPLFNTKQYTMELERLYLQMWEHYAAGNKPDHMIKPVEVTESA


target: T1, UDP-N-acetylglucosamine-peptide N-acetylglucosaminyltransferase (mouse (endogenous in MEFs)); assay: affinity purification with mass spectrometry; endogenous OGT immunoprecipitated (antibody AL24, protein G magnetic beads, TCL buffer: 50 mM Tris HCl, 150 mM NaCl, pH 7.5, 1% NP-40, 2 mM EDTA) from a 1:1:1 mix of SILAC-labelled lysates of WT, H2O2-treated (2.5 mM, 1.5 h) and OGT-null MEFs, precleared with rabbit IgG; in-gel trypsin digestion, LC-MS/MS; interactor if log2 WT or H2O2/null >=1 in 2 or more replicates

Binder | binding
Pls3 (protein, UniProt Q99K51 1-630) MDEMATTQISKDELDELKEAFAKVDLNSNGFICDYELHELFKEANMPLPGYKVREIIQKLMVDGDRNKDGKISFNEFVYIFQEVKSSDIAKTFRKAINRKEGICALGGTSELSSEGTQHSYSEEEKYAFVNWINKALENDPDCRHVIPMNPNTDDLFKAVGDGIVLCKMINLSVPDTIDERAINKKKLTPFIIQENLNLALNSASAIGCHVVNIGAEDLRAGKPHLVLGLLWQIIKIGLFADIELSRNEALAALLRDGETLEELMKLSPEELLLRWANFHLENSGWQKINNFSADIKDSKAYFHLLNQIAPKGQKEGEPRIDINMSGFNETDDLKRAESMLQQADKLGCRQFVTPADVVSGNPKLNLAFVANLFNKYPALTKPENQDIDWTLLEGETREERTFRNWMNSLGVNPHVNHLYADLQDALVILQLYERIKVPVDWSKVNKPPYPKLGANMKKLENCNYAVELGKNPAKFSLVGIGGQDLNDGNPTLTLAVVWQLMRRYTLNVLEDLGEGQKANDDIIVNWVNRTLSEAGKSTSIQSFKDKTISSSLAVVDLIDAIQPGCINYDLVKSGNLTEDDKHNNAKYAVSMARRIGARVYALPEDLVEVKPKMVMTVFACLMGRGMKRV | binds
Acetyl-CoA acetyltransferase, mitochondrial precursor (protein, UniProt Q8QZT1 31-424) ASKPTLNEVVIVSAIRTPIGSFLGSLASQPATKLGTAAIQGAIEKAGIPKEEVKEVYMGNVIQGGEGQAPTRQATLGAGLPISTPCTTVNKVCASGMKAIMMASQSLMCGHQDVMVAGGMESMSNVPYVMSRGATPYGGVKLEDLIVKDGLTDVYNKIHMGNCAENTAKKMNISRQEQDTYALSSYTRSKEAWDAGKFASEITPITISVKGKPDVVVKEDEEYKRVDFSKVPKLKTVFQKENGTITAANASTLNDGAAALVLMTAEAAQRLNVKPLARIAAFADAAVDPIDFPLAPAYAVPKVLKYAGLKKEDIAMWEVNEAFSVVVLANIKMLEIDPQKVNIHGGAVSLGHPIGMSGARIVVHMAHALKPGEFGLASICNGGGGASALLIEKL | binds
Pdlim2 (protein, UniProt Q8R1G6 1-349) MALTVDVAGPAPWGFRISGGRDFHTPIIVTKVTERGKAEAADLRPGDIIVAINGQSAENMLHAEAQSKIRQSASPLRLQLDRSQTASPGQTNGEGSLEVLATRFQGSLRTHRDSQSSQRSACFSPVSLSPRPCSPFSTPPPTSPVALSKEDMIGCSFQSLTHSPGLAAAHHLTYPGHPTSQQAGHSSPSDSAVRVLLHSPGRPSSPRFSSLDLEEDSEVFKMLQENRQGRAAPRQSSSFRLLQEALEAEERGGTPAFVPSSLSSQASLPTSRALATPPKLHTCEKCSVNISNQAVRIQEGRYRHPGCYTCADCGLNLKMRGHFWVGNELYCEKHARQRYSMPGTLNSRA | binds
Cyr61 (protein, UniProt P18406 25-379) TCPAACHCPLEAPKCAPGVGLVRDGCGCCKVCAKQLNEDCSKTQPCDHTKGLECNFGASSTALKGICRAQSEGRPCEYNSRIYQNGESFQPNCKHQCTCIDGAVGCIPLCPQELSLPNLGCPNPRLVKVSGQCCEEWVCDEDSIKDSLDDQDDLLGLDASEVELTRNNELIAIGKGSSLKRLPVFGTEPRVLFNPLHAHGQKCIVQTTSWSQCSKSCGTGISTRVTNDNPECRLVKETRICEVRPCGQPVYSSLKKGKKCSKTKKSPEPVRFTYAGCSSVKKYRPKYCGSCVDGRCCTPLQTRTVKMRFRCEDGEMFSKNVMMIQSCKCNYNCPHPNEASFRLYSLFNDIHKFRD | binds
Pmpcb (protein, UniProt Q9CXT8 46-489) QAAPQVVLNVPETQVTCLENGLRVASENSGLSTCTVGLWIDAGSRYENEKNNGTAHFLEHMAFKGTKKRSQLDLELEIENMGAHLNAYTSREQTVYYAKAFSRDLPRAVEILADIIQNSTLGEAEIERERGVILREMQEVETNLQEVVFDYLHATAYQNTALGRTILGPTENIKSINRKDLVDYITTHYKGPRIVLAAAGGVCHNELLELAKFHFGDSLCSHKGAIPALPPCKFTGSEIRVRDDKMPLAHLAIAVEAVGWAHPDTICLMVANTLIGNWDRSFGGGMNLSSKLAQLTCHGNLCHSFQSFNTSYTDTGLWGLYMVCEQATVADMLHVVQNEWKRLCTDVTESEVARAKNLLKTNMLLQLDGSTPICEDIGRQMLCYNRRIPIPELEARIDAVDAETVRRVCTKYIHDKSPAIAALGPIERLPDFNQICSNMRWIRD | binds

Next, values leading:

binding | Binder
binds | Yars (protein, UniProt Q91WQ3 1-528) MGDAPSPEEKLHLITRNLQEVLGEEKLKEILKERELKVYWGTATTGKPHVAYFVPMSKIADFLKAGCEVTILFADLHAYLDNMKAPWELLELRTSYYENVIKAMLESIGVPLEKLKFIKGTDYQLSKEYTLDVYRLSSVVTQHDAKKAGAEVVKQVEHPLLSGLLYPGLQALDEEYLKVDAQFGGVDQRKIFTFAEKYLPALGYSKRVHLMNPMVPGLTGSKMSSSEEESKIDLLDRKEDVKKKLKKAFCEPGNVENNGVLSFIKHVLFPLKSEFVILRDEKWGGNKTYTVYLELEKDFAAEVVHPGDLKNSVEVALNKLLDPIREKFNTPALKKLASAAYPDPSKQKPPAKGPAKNSEPEEVIPSRLDIRVGKILSVEKHPDADSLYVEKIDVGEAEPRTVVSGLVQFVPKEELQDRLVVVLCNLKPQKMRGVDSQGMLLCASVEGVSRQVEPLDPPAGSAPGERVFVQGYEKGQPDEELKPKKKVFEKLQADFKISEECIAQWKQTNFMTKLGFVSCKSLKGGNIS
binds | Zfp644 (protein, UniProt E9QA22 1-1323) MRLFLHQDVNKPKFRLKVLNDLANNMDDLKINTDITGAKEELQDDNNFISEKDSGVHKPKDCQTSFQKNSSLTRSEELSEDQSEQALSGGQSALFLPASTPAVPTENFPLPTGAVVNGPVSCSSSTKTSNMNEGSVSLTPGQPADQLAAESCSTLKAAADHQLSTPQKASQHQVLFLLSDVAHAKNPTHSIKKVPTSALVGCDVQNSVGNNMKSESTLLSQAEVGQGDASTVVRDDCVSALAVISSGTDEFRSENDTNWDPQKEFIQFLMTSEETVDKPPAHSKVVGLEKKRKRKMDVSKITRYTEDCYSDSGRAPGKSKILQVDFLGQNEEMQAIDSQNYTLSKVKPESAGGDLESVDTFQHLVYNSDKCGEDNSPVHTRTLISNTLKKKCEESDPESPVAFSTEEPSFYPCTKCNVNFREKKHLHRHMMYHLDGNSHFRHLNVPRPYACRECGRTFRDRNSLLKHMIIHQERRQKLMEEIRELKELQDEGRSARLQCPQCVFGTNCPKTFVQHAKTHEKDKRYYCCEECNFMAVTENELECHRGIAHGAAVKCPVVSSEVTQRKTQKKTSVKDSVIGSSKKPATYLCKMCPFTTSARSILKKHTEYLHSSACVDSFGNPLGLDKRKNDSLEESVDVDSTKSLAKQQPSTFPKNSALKQDAKRTFGSSSQSSNFSKFHKRPHRIQKARKSIAQSGVNSCSQNKSPHKNVMVKSSTDQQPKYFHQAPREKPNARADSSYLYRHKYNNYRTIRKSGDSYPLPFKKEVNSLNSLHLFSSSNSHNFISDPHNADTKRPENEKDHKRVAVKRVAKASKKESSAGEDLDSYPDFLHKMTVVVLQKLHSDKKDSYETEDDSSWDNVELGDYTTQAMEEEAYSDLSQEHVNLLPLFKSKIEGQGPGDSAALSYDQNDGFYFEYYEDGGTNSFLQDIHDPQHLENPETPLSKHSSVFHWTDLSLEKKSCPYCPATFETGVGLSNHVRGHLHRAGLSYEARHVVSPEQIATSDKMQHFKRTGNGTPVKRVRKAIEKSETTSEHTCQLCGGWFDTKIGLSNHVRGHLKRLGKTKWDAHKSPICVLNEMMQNEEKYEKILKALNSRRIIPRPFVAQKLSSGDDFLSHNVLPLDEYHNGLKTEALSVSASEEEGLHFLSECGERKPELPSGRKNQSLTLIELLKSRRLGEERNSAVSPHKTHNQTARKRFVQKCVLPLNEDSPLIYQPQKMDLTVHSAIDCKQKKSRSRSGSKKKMLTLPHGADEVYILRCRFCGLVFRGPLSVQEDWIKHLQRHIVNANLPRTGAGMVEVTSLLKKPASITETSFSLLMAEAAS
binds | Ppm1g (protein, UniProt Q61074 1-542) MGAYLSQPNTVKCSGDGVGAPRLPLPYGFSAMQGWRVSMEDAHNCIPELDNETAMFSVYDGHGGEEVALYCAKYLPDIIKDQKAYKEGKLQKALQDAFLAIDAKLTTEEVIKELAQIAGRPTEDEDDKDKVADEDDVDNEEAALLHEEATMTIEELLTRYGQNCQKVPPHTKSGIGTGDEPGPQGLNGEAGPEDPSRETPSQENGPTAKGHTGFSSNSEHGTEAGQISEPGTATGEAGPSCSSASDKLPRVAKSKFFEDSEDESDEVEEEEDDSEECSEDEDGYSSEEAENEEDEDDTEEAEEDDDEEMMVPGMEGKEEPGSDSGTTAVVALIRGKQLIVANAGDSRCVVSEAGKALDMSYDHKPEDEVELARIKNAGGKVTMDGRVNGGLNLSRAIGDHFYKRNKNLPPQEQMISALPDIKVLTLTDDHEFMVIACDGIWNVMSSQEVVDFIQSKISQRDENGELRLLSSIVEELLDQCLAPDTSGDGTGCDNMTCIIICFKPRNTVELQAESGKRKLEEALSTEGAEDTGNSDKKKAKRD
